This series can be described thus: general procedure: solution-phase peptide synthesis; EDC hydrochloride / HOBt, Hünig's base; hydroxysuccinimide ester. The note with it: bis-trifluoroacetate.

Turning to “20-O-[L-Prolyl-L-leucyl-glycyl-L-leucyl-L-histidyl-L-valyl]-camptothecin bis-trifluoroacetate”, the step yield came out at 77% (coupling step) and 91% (late stage modification step).

Under “coupling step”, “N-tert-butoxycarbonyl-L-prolyl-L-leucyl-glycyl-L-leucin” showed a step yield of 42%.

The record behind these values is patent US20020183256A1 (priority 2000, published 2002).
